In PMC10873197 one finds binding data, which are given here for 1 substance.

Protein sequences, listed by entry. Tags and fused reporters are not part of them.
UniProt P46937: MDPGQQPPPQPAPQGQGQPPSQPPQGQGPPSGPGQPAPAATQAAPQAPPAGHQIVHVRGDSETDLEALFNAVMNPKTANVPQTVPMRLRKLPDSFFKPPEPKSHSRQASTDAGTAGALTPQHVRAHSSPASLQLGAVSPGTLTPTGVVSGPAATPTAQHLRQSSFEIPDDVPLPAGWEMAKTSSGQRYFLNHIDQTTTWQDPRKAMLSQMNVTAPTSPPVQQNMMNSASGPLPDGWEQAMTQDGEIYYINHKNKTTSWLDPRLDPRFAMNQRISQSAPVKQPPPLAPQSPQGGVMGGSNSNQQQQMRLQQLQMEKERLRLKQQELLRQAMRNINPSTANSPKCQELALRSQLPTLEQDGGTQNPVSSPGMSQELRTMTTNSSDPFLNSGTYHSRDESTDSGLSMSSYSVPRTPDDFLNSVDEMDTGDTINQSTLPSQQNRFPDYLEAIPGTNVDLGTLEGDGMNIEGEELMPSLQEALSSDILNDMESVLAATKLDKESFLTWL
UniProt P10244: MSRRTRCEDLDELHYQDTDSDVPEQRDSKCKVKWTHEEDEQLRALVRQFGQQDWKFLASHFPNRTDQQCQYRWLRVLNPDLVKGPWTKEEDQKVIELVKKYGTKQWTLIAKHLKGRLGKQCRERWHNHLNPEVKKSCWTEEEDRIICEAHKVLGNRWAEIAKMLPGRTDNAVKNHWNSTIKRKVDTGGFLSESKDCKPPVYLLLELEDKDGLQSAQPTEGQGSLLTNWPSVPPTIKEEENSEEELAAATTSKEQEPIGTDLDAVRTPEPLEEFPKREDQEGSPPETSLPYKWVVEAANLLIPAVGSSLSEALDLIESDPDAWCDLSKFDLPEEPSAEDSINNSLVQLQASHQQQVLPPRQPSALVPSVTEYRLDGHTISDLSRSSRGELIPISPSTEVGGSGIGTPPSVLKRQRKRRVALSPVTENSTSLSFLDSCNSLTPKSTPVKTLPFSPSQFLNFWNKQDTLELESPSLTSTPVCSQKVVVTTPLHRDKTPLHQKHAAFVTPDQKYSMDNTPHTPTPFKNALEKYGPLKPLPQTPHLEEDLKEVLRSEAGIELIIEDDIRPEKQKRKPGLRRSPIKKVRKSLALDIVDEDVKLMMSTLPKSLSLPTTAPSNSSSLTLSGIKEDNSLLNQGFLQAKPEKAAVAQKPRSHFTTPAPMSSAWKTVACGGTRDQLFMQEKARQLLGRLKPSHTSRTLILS

The target of this experiment is Flag-tagged YAP (UniProt P46937). Description: co-IP; HeLa cells transfected with pCDNA-HA-BMYB, pCDNA-FLAG-YAP and pCDNA-MY-COMP or empty vector (the text says doxycycline-induced MY-COMP); FLAG antibody on protein G dynabeads, 1 mg whole cell lysate in TNN buffer, five washes; bound HA-B-MYB detected by immunoblotting. Background: Immunoblotting shows a protein as a band on a membrane.

Results are given in words; binding and its absence hold for the method and conditions named. Binding seen in cells or lysates may run through a third protein. Some binding calls cover weakened binding; strength is not graded here.

As to “HA-tagged B-MYB (from UniProt P10244 1-700)”, the binding entry is “binds”.
